# From the supplement of paper PMC10382679
# Single values of this set are uncertain.
# B1: Rpb7; numbered along this chain (parent)
# chain: MFFIKDLSLNITLHPSFFGPRMKQYLKTKLLEEVEGSCTGKFGYILCVLDYDNIDIQRGRILPTDGSAEFNVKYRAVVFKPFKGEVVDGTVVSCSQHGFEVQVGPMKVFVTKHLMPQDLTFNAGSNPPSYQSSEDVITIKSRIRVKIEGCISQVSSIHAIGSIKEDYLGAI
# Legend:
# [1] = variants of: B1; assay: log2 fold change of mutant abundance, UV-irradiated vs unirradiated; higher = more UV resistant (enriched after UV); conditions: with Saccharomyces cerevisiae rad7Δ rad26Δ; UV dose (J/m2): 10; genetic background: rad7Δ rad26Δ rpb7Δ + plasmid RPB7 library; outgrowth: 10 cell divisions
# [2] = variants of: B1; assay: NOISeq theta enrichment statistic, UV-irradiated vs unirradiated (dimensionless); higher = more UV resistant (enriched after UV); conditions: with Saccharomyces cerevisiae rad7Δ rad26Δ; UV dose (J/m2): 10; genetic background: rad7Δ rad26Δ rpb7Δ + plasmid RPB7 library; outgrowth: 10 cell divisions
Variant,log2 fold change of mutant abundance [1],NOISeq theta enrichment statistic [2]
MFFIKDLSLNITLHPSFFGPRMKQYLKTKLLEEVEGSCTGKFGYILCVLDYDNIDIQRGRILPTDGSAEFNVKYRAVVSKPFKGEVVDGTVVSCSQHGFEVQVGPMKVFVTKHLMPQDLTFNAGSNPPSYQSSEDVITIKSRIRVKIEGCISQVSSIHAIGSIKEDYLGAI [F79S],0.0553,0.11
MFFIKDLSLNITLHPSFFGPRMKQYLKTKLLEEVEGSCTGKFGYILCVLDYDNIDIQRGRILPTDGSAEFNVKYRAVVFKPFKGEVVDGTVVSCSQHGFEVQVGPMKVFVTKHLMPQDLTFNAGSNPPSYQSSEDVITIKSTIRVKIEGCISQVSSIHAIGSIKEDYLGAI [R142T],-0.369,-0.387
MFFIKDLSLNITLHPSFFGPRMKQYLKTKLLEEVEGSCTGKFGYILCVLDYDNIDIQRGRILPTDGSAEFNVKYRAVVFKPFKGEVVDGTVVSCSQRGFEVQVGPMKVFVTKHLMPQDLTFNAGSNPPSYQSSEDVITIKSRIRVKIEGCISQVSSIHAIGSIKEDYLGAI [H97R],-0.0658,-0.285
MFFIKDLSLNITLHPSFFGPRMKQYLKTKLLEEVEGSCTGKFGYILCVLDYDNIDIQRGRILPTDGSAEFNVKYRAVVFKPFKGEVVDGTVVSCSQHGFEVQVGPMKVFVTKFLMPQDLTFNAGSNPPSYQSSEDVITIKSRIRVKIEGCISQVSSIHAIGSIKEDYLGAI [H113F],0.666,0.293
MFFIKDLSLNITLHPSFFGPRMKQYLKTKLLEEVEGSCTGKFGYILCVLDYDNIDIQRGRILPTDGTAEFNVKYRAVVFKPFKGEVVDGTVVSCSQHGFEVQVGPMKVFVTKHLMPQDLTFNAGSNPPSYQSSEDVITIKSRIRVKIEGCISQVSSIHAIGSIKEDYLGAI [S67T],0.129,0.477
MFFIKDLSLNITLHPSFFGPRMKQYLKTKLLQEVEGSCTGKFGYILCVLDYDNIDIQRGRILPTDGSAEFNVKYRAVVFKPFKGEVVDGTVVSCSQHGFEVQVGPMKVFVTKHLMPQDLTFNAGSNPPSYQSSEDVITIKSRIRVKIEGCISQVSSIHAIGSIKEDYLGAI [E32Q],-0.47,-0.496
MFFIKDLSLNKTLHPSFFGPRMKQYLKTKLLEEVEGSCTGKFGYILCVLDYDNIDIQRGRILPTDGSAEFNVKYRAVVFKPFKGEVVDGTVVSCSQHGFEVQVGPMKVFVTKHLMPQDLTFNAGSNPPSYQSSEDVITIKSRIRVKIEGCISQVSSIHAIGSIKEDYLGAI [I11K],-0.195,-0.0764
MFFIKDLSLNITLHPSFFGPRMKQYLKTKLLEEVEGSCTGKFGYILCVLDYDNIDIQRGRILPTDGSAEFNVKYRAVVFKPFKGEVVDGTRVSCSQHGFEVQVGPMKVFVTKHLMPQDLTFNAGSNPPSYQSSEDVITIKSRIRVKIEGCISQVSSIHAIGSIKEDYLGAI [V91R],0.148,0.0975
MFFIKDLSLNITLHPSFFGPRMKQYLKTKLLEEVEGSCTGKFGYILCVLDYDNIDIQRGRILPTDGSAEFNVKYRAVVFKPFKGEVVDGTVFSCSQHGFEVQVGPMKVFVTKHLMPQDLTFNAGSNPPSYQSSEDVITIKSRIRVKIEGCISQVSSIHAIGSIKEDYLGAI [V92F],0.0176,0.0595
MFFIKDLSLNITLHPSFFGPRMKQYLKTKLLEEVEGSCTGKFGYILCVLDYDNIDIQRGRILPTDGSAEFNVKYRAVVFKPFKGEVVDGTVVSCSQHGFEVQVGPMKVFVTKHLMPQDLTFNAGSNPPSYQSSENVITIKSRIRVKIEGCISQVSSIHAIGSIKEDYLGAI [D135N],-0.225,-0.543
MFFIKDLSLNITLHPSFFGPRMKQYLKTELLEEVEGSCTGKFGYILCVLDYDNIDIQRGRILPTDGSAEFNVKYRAVVFKPFKGEVVDGTVVSCSQHGFEVQVGPMKVFVTKHLMPQDLTFNAGSNPPSYQSSEDVITIKSRIRVKIEGCISQVSSIHAIGSIKEDYLGAI [K29E],0.113,0.259
MFFIKDLSLNITLHPSFFGPRMKQYLKTKLLEEVEGSCTGKFGYIRCVLDYDNIDIQRGRILPTDGSAEFNVKYRAVVFKPFKGEVVDGTVVSCSQHGFEVQVGPMKVFVTKHLMPQDLTFNAGSNPPSYQSSEDVITIKSRIRVKIEGCISQVSSIHAIGSIKEDYLGAI [L46R],-0.0964,-0.107
MFFIKDLSLNITLHPSFFGPRMKQYLKTKLLEEVEGSCTGKFGYILCVLDYDNIDIQRGRILPTDGSAEFNVKYRAVVFKPFKGEVVDGTVVSCSQHGFEVQVGPMKVFVTKHLMPQDLTFNAGSNPPSYQSSEDVITQKSRIRVKIEGCISQVSSIHAIGSIKEDYLGAI [I139Q],-0.0107,-0.00954
MFFIKDLSLNITLHPSFFGPRMKQYLKTKLLEEVEGSCTGKFGYILCVLDYDNIDIQRGRILPTDGSAEFNVKYRAVVFKPFKGEVVDGTVVSCSQHGFNVQVGPMKVFVTKHLMPQDLTFNAGSNPPSYQSSEDVITIKSRIRVKIEGCISQVSSIHAIGSIKEDYLGAI [E100N],-0.232,-0.236
MFFIKDLSLNITLHPSFFGPRMKQYLKTKLLEEVEGSCTGKFGYILCVLDYDNIDIQRGRILPTDGSAEFNVKYRAVVFKPFKGEVVDGTVVSCSQHGFGVQVGPMKVFVTKHLMPQDLTFNAGSNPPSYQSSEDVITIKSRIRVKIEGCISQVSSIHAIGSIKEDYLGAI [E100G],-0.255,-1.13
MFFIKDLSLNITLHPSFFGPRFKQYLKTKLLEEVEGSCTGKFGYILCVLDYDNIDIQRGRILPTDGSAEFNVKYRAVVFKPFKGEVVDGTVVSCSQHGFEVQVGPMKVFVTKHLMPQDLTFNAGSNPPSYQSSEDVITIKSRIRVKIEGCISQVSSIHAIGSIKEDYLGAI [M22F],0.382,0.268
MFFIKDLSLNITLHPSFFGPRMKQYLKTKLLEEVEGSCTCKFGYILCVLDYDNIDIQRGRILPTDGSAEFNVKYRAVVFKPFKGEVVDGTVVSCSQHGFEVQVGPMKVFVTKHLMPQDLTFNAGSNPPSYQSSEDVITIKSRIRVKIEGCISQVSSIHAIGSIKEDYLGAI [G40C],-0.42,-1.02

# 2 entries picked at random from the list so far:
Variant,log2 fold change of mutant abundance [1],NOISeq theta enrichment statistic [2]
MFFIKDLSLNITLHPSFFGPRMKQYLKTKLLEEVEGSCTCKFGYILCVLDYDNIDIQRGRILPTDGSAEFNVKYRAVVFKPFKGEVVDGTVVSCSQHGFEVQVGPMKVFVTKHLMPQDLTFNAGSNPPSYQSSEDVITIKSRIRVKIEGCISQVSSIHAIGSIKEDYLGAI [G40C],-0.42,-1.02
MFFIKDLSLNITLHPSFFGPRMKQYLKTKLLEEVEGSCTGKFGYILCVLDYDNIDIQRGRILPTDGSAEFNVKYRAVVFKPFKGEVVDGTVVSCSQHGFEVQVGPMKVFVTKHLMPQDLTFNAGSNPPSYQSSENVITIKSRIRVKIEGCISQVSSIHAIGSIKEDYLGAI [D135N],-0.225,-0.543
